Data: PubChem BioAssay AID2685 (National Center for Advancing Translational Sciences (NCATS), 2010)
Some of the results follow. The main result of the screen is listed elsewhere. These columns were measured beside it and carry no call. Compounds called inactive in the main read-out are mostly missing here. The note in brackets gives the kind of curve behind each potency; many fits are weak.

Experiment: qHTS Assay for Lipid Storage Modulators in Drosophila S3 Cells;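 on cell number change: cells counted by Cell Tracker Red CMTPX staining in the red channel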
Settings: BODIPY lipid droplet fluorescence, 18-24 h; for cell number change: measured here: cell count max response, cells fed with added oleic acid
Method in brief: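 Laser-scanning cytometry quantifies lipid droplet accumulation (500–530 nm total intensity; droplet/cell object ratio) in oleic acid-fed (400 uM added) Drosophila S3 cells treated with a concentration series. 20 uM Triacsin C defined 100% inhibition.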

[1] = measured here: cell number channel AC50, cells fed with added oleic acid
[2] = measured here: lipid fluorescence (Fed channel) AC50, cells fed with added oleic acid

For `Cc1ccc(NC(=O)CCc2nc3ccccc3s2)c(O)c1`, the AC50 [1] was 0.00461 µM [rising, full curve, poor fit].
For `CC(C)(C)[C@H]1C=C(C(=O)N2CCOCC2)O[C@@H](OCCCCO)C1`, the cell number change was 18.1% and the AC50 [1] was 0.058 µM [rising, full curve, poor fit].
In the case of `CC1CCN(CC(O)COc2ccc(-c3ccccc3)cc2)CC1` (stereo not drawn), the cell number change is reported as 5.87% and the AC50 [2] is reported as 29.1 µM [falling, single point].
For `CCN(CC)C(=O)Cn1cc(C(=O)C(=O)NCCc2c[nH]c3ccccc23)c2ccccc21`, the cell number change was 4.59% and the AC50 [2] was 0.058 µM [rising, full curve, poor fit].
With `Cc1nc(/N=C(\N)NC(=O)N2c3ccccc3Sc3ccccc32)nc2ccccc12` the AC50 [2] was 0.461 µM [rising, single point].
In the case of `Brc1ccc2[nH]c3c(N4CCc5ccccc5C4)ncnc3c2c1`, the cell number change is reported as -88.5%, the AC50 [1] is reported as 20.6 µM [falling, partial curve] and the AC50 [2] is reported as 29.1 µM [falling, single point].
Work on `O=C(CN(C(=O)CNC(=O)c1cccs1)c1ccccc1)NC1CCCCC1` yielded a cell number change of 5.65%.
In the case of `CCN(CC(=O)Nc1c(F)cccc1F)C(=O)CNC(=O)c1ccc2c(c1)OCO2`, the AC50 [2] is reported as 3.26 µM [falling, single point].
In the case of `CCCc1cc(C(=O)NNC(=S)Nc2cccc(C)c2)cs1`, the cell number change is reported as -18.9% and the AC50 [2] is reported as 1.3 µM [rising, full curve].
With `Cc1cc(C)c(NC(=O)COC(=O)c2cc([N+](=O)[O-])ccc2N2CCOCC2)c(C)c1` the cell number change was 2.44% and the AC50 [2] was 10.3 µM [rising, partial curve].
In the case of `OCCN1CCN(CC#CCn2c3ccccc3c3ccccc32)CC1`, the cell number change is reported as 0.471% and the AC50 [2] is reported as 0.206 µM [falling, full curve].
In the case of `COc1cccc(N2CCN(C(=O)CN3C(=O)NC(C)(c4ccc5ccccc5c4)C3=O)CC2)c1` (stereo not drawn), the cell number change is reported as -3.63% and the AC50 [2] is reported as 7.31 µM [falling, single point].
For `Cc1cc(Cl)ccc1OC(C)C(=O)Nc1ccc([N+](=O)[O-])cn1` (stereo not drawn), the cell number change was 0.322% and the AC50 [2] was 0.103 µM [falling, full curve, poor fit].
For `O=c1cc(-c2ccccc2)nc2nc(COc3ccccc3)[nH]n12`, the cell number change was 44.1% and the AC50 [1] was 14.6 µM [rising, single point].
With `Cc1ccc(NC(=S)NCCO)c(C)c1` the cell number change was -68.3%, the AC50 [1] was 16.4 µM [falling, single point] and the AC50 [2] was 18.4 µM [falling, partial curve].
With `O=C(NCC1CCCO1)c1ccc(-c2ccccc2Cl)o1` (stereo not drawn) the cell number change was 82.5% and the AC50 [1] was 16.4 µM [rising, partial curve, poor fit].
With `Cc1ccc(S(=O)(=O)NC(C(=O)Oc2ccc3ccc(=O)oc3c2)c2ccccc2)cc1` (stereo not drawn) the cell number change was -3.1%, the AC50 [1] was 4.11 µM [rising, single point] and the AC50 [2] was 7.31 µM [rising, partial curve].
With `O=C1CCCN1c1ccc(S(=O)(=O)N2CCN(c3ccccn3)CC2)cc1` the AC50 [1] was 0.82 µM [rising, full curve] and the AC50 [2] was 1.84 µM [rising, partial curve].
For `O=C(CCc1nnc2n(Cc3ccc(Cl)cc3)c(=O)c3ccccc3n12)NCCN1CCCC1`, the cell number change was 1.15%.
With `CC(=O)OC1=C(C#N)Cn2ccc3cccc1c32` the AC50 [1] was 1.3 µM [falling, full curve] and the AC50 [2] was 6.51 µM [rising, single point].
For `CC1CCCN(C(=O)C(C)Sc2nc(-c3ccccc3)cc(C(F)(F)F)n2)C1` (stereo not drawn), the cell number change was -49.5% and the AC50 [2] was 3.26 µM [rising, partial curve].
In the case of `CCCSc1nnc2[nH]c(=O)cc(N)n12`, the cell number change is reported as 22.1% and the AC50 [2] is reported as 8.2 µM [rising, partial curve].
For `O=C(OCC(=O)N1CCOCC1)c1cc(S(=O)(=O)N2CCOCC2)c(Cl)cc1Cl`, the cell number change was -51.6% and the AC50 [1] was 0.231 µM [falling, full curve].
For `Cc1ccc(C)n1-c1ccc(NC(=O)c2ccccc2)cc1`, the cell number change was 16.5% and the AC50 [2] was 14.6 µM [rising, single point].
With `CC(CCN1C(N(C)C)=NC[C@@H]1C)c1ccccc1` (stereo partly drawn) the cell number change was 12.4%.
With `O=C(O)c1ccc2c(c1)C(=O)N([C@H](Cc1cccc3ccccc13)C(=O)O)C2=O` the cell number change was -1.35% and the AC50 [2] was 18.4 µM [rising, partial curve].
For `CCOC(=O)Cc1csc(SCC(=O)NC2CCCC2)n1`, the cell number change was -33.7% and the AC50 [1] was 0.103 µM [falling, full curve, poor fit].
With `Cc1ccc(CS(=O)Cc2ccc(C(=O)NCc3ccc(OC(C)C)cc3)o2)cc1` (stereo not drawn) the cell number change was -4.62% and the AC50 [2] was 0.411 µM [falling, partial curve, poor fit].
With `O=C(CSCc1cccc(Cl)c1)N/N=C/c1ccc(OCC(=O)N2CCCCC2)cc1` the cell number change was -1.44% and the AC50 [2] was 18.4 µM [falling, single point].
With `CCOc1ccc(S(=O)(=O)NC2CC2)cc1` the cell number change was -5.47% and the AC50 [2] was 4.61 µM [rising, full curve].
For `COC(=O)c1cc(=O)n(Cc2ccc3c(c2)OCO3)c(=Nc2ccc(F)c(Cl)c2)s1`, the cell number change was 15.2% and the AC50 [1] was 0.517 µM [rising, full curve, poor fit].
With `O=C(NC1CCN(S(=O)(=O)c2ccc(F)cc2)CC1)c1ccc(F)cc1` the cell number change was -10.5% and the AC50 [2] was 20.6 µM [rising, single point].
In the case of `CC[C@H](C)C(C(=O)N1CCN(C(=O)OC(C)(C)C)CC1)n1cc(C(Cc2ccc(O)cc2)NC(=O)OC(C)(C)C)nn1` (stereo partly drawn), the cell number change is reported as -18.3% and the AC50 [2] is reported as 29.1 µM [falling, single point].
With `CC(=O)C(C(c1ccccc1)c1c[nH]c2ccccc12)[N+](=O)[O-]` (stereo not drawn) the cell number change was -33.7%, the AC50 [1] was 32.6 µM [falling, single point] and the AC50 [2] was 29.1 µM [falling, single point].
Molecule `COc1cc(Nc2ccc(S(N)(=O)=O)cc2)c([N+](=O)[O-])nc1[N+](=O)[O-]` has a cell number change of 5.84%.
With `CC(=O)C1C(c2cccc([N+](=O)[O-])c2)C2C(C)=NN=C2CC1(C)O` (stereo not drawn) the cell number change was 6.91%.
For `COc1ccc(CCC(=O)NCc2ccccc2Cl)cc1OC`, the cell number change was 20.4% and the AC50 [2] was 0.291 µM [rising, full curve, poor fit].
In the case of `CC(OC(=O)CNC(=O)c1ccc(Br)cc1)C(=O)NC1CCCCC1C` (stereo not drawn), the cell number change is reported as -0.413% and the AC50 [2] is reported as 0.411 µM [rising, full curve, poor fit].
For `O=C(CSc1ncnc2c1cnn2Cc1ccccc1)Nc1ccc2c(c1)OCCO2`, the AC50 [1] was 6.51 µM [rising, single point].
`O=C(NCc1ccc2c(c1)OCO2)c1cc(S(=O)(=O)N2CCCCC2)ccc1F` showed a cell number change of -25.4%.
In the case of `O=C(NCC(c1ccco1)N1CCc2ccccc2C1)C(=O)Nc1ccccc1F` (stereo not drawn), the cell number change is reported as 1.01% and the AC50 [1] is reported as 3.66 µM [rising, single point].
With `CCCn1ncc(C(=O)N(C)C2CCCN(Cc3ccccc3F)C2)c1C` (stereo not drawn) the cell number change was 1.13% and the AC50 [2] was 5.17 µM [falling, single point].
In the case of `Cc1oncc1C(=O)NC1CCCCC1`, the cell number change is reported as -5.88% and the AC50 [2] is reported as 0.411 µM [falling, single point].
With `O=C(CCS(=O)(=O)c1ccccc1)Nc1ccc(N2CCN(Cc3ccccc3)CC2)cc1` the cell number change was -13.7% and the AC50 [2] was 0.58 µM [rising, single point].
With `O=[N+]([O-])c1ccc(Cn2cc(-c3cccc(C(F)(F)F)c3)nn2)cc1` the cell number change was 9.28% and the AC50 [2] was 18.4 µM [falling, single point].
With `CC(=O)/C=C(\C)NCCNc1c(F)c(F)c(CO)c(F)c1F` the cell number change was 6.75% and the AC50 [2] was 0.82 µM [rising, full curve, poor fit].
In the case of `Cc1cc(C)nc(SCC(=O)Nc2ccc(S(=O)(=O)Nc3onc(C)c3C)cc2)n1`, the AC50 [2] is reported as 4.11 µM [falling, single point].
In the case of `O=C(Nc1ccc(Cl)cn1)Nc1cccs1`, the cell number change is reported as -15.2% and the AC50 [2] is reported as 4.11 µM [rising, single point].
In the case of `COC(=O)c1ccc(Nc2ncnc3c2cnn3-c2cccc(C)c2)cc1`, the cell number change is reported as 16.2% and the AC50 [2] is reported as 0.651 µM [falling, full curve, poor fit].
In the case of `COc1ccc2cc([C@H](C)C(=O)N(C)Cc3ccccc3N3CCCC3)ccc2c1`, the cell number change is reported as 79% and the AC50 [1] is reported as 18.4 µM [rising, partial curve, poor fit].
With `CN(CC(=O)Nc1ccc(Cl)c(C(F)(F)F)c1)C(=O)CNC(=O)C1CCCCC1` the cell number change was -1.72% and the AC50 [2] was 0.00517 µM [falling, full curve, poor fit].
In the case of `COc1c([N+](=O)[O-])c(=O)n(-c2ccccc2)c2ccccc12`, the cell number change is reported as -5.43%, the AC50 [1] is reported as 0.00517 µM [falling, full curve, poor fit] and the AC50 [2] is reported as 23.1 µM [rising, single point].
For `COc1ccc(OCc2nn3c(Cn4cnc5ccccc54)nnc3s2)cc1`, the cell number change was -18.2% and the AC50 [2] was 18.4 µM [rising, single point].
With `C/C(=N\NC(=O)c1cccc(F)c1)c1cccc(NC(=O)c2ccc(F)cc2)c1` the cell number change was 18.3%, the AC50 [1] was 7.31 µM [rising, partial curve] and the AC50 [2] was 1.64 µM [rising, full curve, poor fit].
With `Cc1nn(C(=O)c2nn(C)cc2Cl)c(C)c1Br` the cell number change was -37.4%, the AC50 [1] was 1.84 µM [falling, full curve, poor fit] and the AC50 [2] was 3.26 µM [rising, partial curve].
`COc1cccc(NC(=O)c2cc(-c3cccnc3)nc3c(Cl)cccc23)c1` gave a cell number change of 5.14%.
In the case of `O=c1oc2c(CN3CCOCC3)c(O)c(Cl)cc2c2c1CCCC2`, the cell number change is reported as 49.7% and the AC50 [1] is reported as 32.6 µM [rising, single point].
In the case of `Cc1ccc2[nH]c(C(=O)NCCN3CCCC3)cc2c1`, the cell number change is reported as -28% and the AC50 [2] is reported as 18.4 µM [rising, single point].
In the case of `CCOc1ccccc1OCCCCOc1ccccc1F`, the cell number change is reported as 14.2% and the AC50 [2] is reported as 8.2 µM [rising, partial curve].
